The list does not hold the whole screen: it gathers tests that were run many times, whatever their T/C, doses with no T/C, and many T/C values between a quarter and a half above the control. Further doses and runs are listed elsewhere. T/C is the treated group as % of the vehicle group. Some entries give survivors of the animals treated and no T/C: the source files T/C as zero there, which appears to mark a toxic dose or a test without result, not a measured value. Some doses without a T/C left all or most animals alive at the check, yet need not have been tolerated: survival well below the control is almost never listed, so the zero probably covers shortened survival too. Survivors were counted at the toxicity check, usually on the fifth day, unless a day is given; later deaths do not show. Schedule codes are those of the source, taken here to give the interval after Q, in days (D) or hours (H), and the number of doses after X. Where survival is the endpoint, the PubChem record calls one and a half times the control and up active, and a quarter to a half above the control has no call in these data; cut-offs in other NCI protocols can differ.

Results on 14 molecules are retold here after PubChem BioAssay AID328 (DTP/NCI, 2004).

The assay has as its system BDF1 mice, P388 leukemia ip, median survival T/C. In words: NCI In Vivo Anticancer Drug Screen. Data for tumor model P388 Leukemia (intraperitoneal) in B6D2F1 (BDF1) mice. The conditions noted are these: T/C endpoint: median survival time, higher T/C = longer survival. In outline: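 Transplantable tumour in mice; compound vs vehicle dosing; survival scored; ratio of treated to control reported.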

The mark [1] stands for this setting: dose: 25.0 mg/kg/injection, schedule: Q01DX009 (ip), vehicle: saline with Tween-80.
[2] abbreviates: dose: 50.0 mg/kg/injection, schedule: Q01DX009 (ip), vehicle: saline with Tween-80.
[3] abbreviates: dose: 100.0 mg/kg/injection, schedule: Q04DX003 (ip), vehicle: saline with Tween-80.
[4] abbreviates: dose: 200.0 mg/kg/injection, schedule: Q04DX003 (ip), vehicle: saline with Tween-80.
Where [5] appears, read: dose: 400.0 mg/kg/injection, schedule: Q04DX003 (ip), vehicle: saline with Tween-80.
Where [6] appears, read: dose: 100.0 mg/kg/injection, schedule: Q01DX009 (ip), vehicle: saline with Tween-80.

Turning to `Cc1c2oc3c(C)ccc(C(=O)NC4C(=O)NC(C(C)C)C(=O)N5CCCC5C(=O)N(C)CC(=O)N(C)C(C(C)C)C(=O)OC4C)c3nc-2c(C(=O)NC2C(=O)NC(C(C)C)C(=O)N3CCCC3C(=O)N(C)CC(=O)N(C)C(C(C)C)C(=O)OC2C)cc1=O` (configuration not stated), the T/C runs as follows: (dose: 1.94 mg/kg/injection, schedule: Q04DX003 (ip), vehicle: saline + alcohol) 149 % of control; (dose: 2.4 mg/kg/injection, schedule: Q04DX003 (ip), vehicle: saline + alcohol) 130 % of control; (dose: 3.4 mg/kg/injection, schedule: Q04DX003 (ip), vehicle: saline + alcohol) 133 % of control; (dose: 4.9 mg/kg/injection, schedule: Q01DX001 (ip), vehicle: saline + alcohol) 134 % of control; (dose: 5.4 mg/kg/injection, schedule: Q04DX003 (ip), vehicle: saline + alcohol) 132 % of control; (dose: 7.0 mg/kg/injection, schedule: Q01DX001 (ip), vehicle: saline + alcohol) 134 % of control.

On to `O=c1[nH]c2ccc(Br)cc2c(=O)o1`, for which the T/C under setting [1] is 138 % of control and the T/C under setting [2] is 144 % of control. Besides, the survivor count (dose: 150.0 mg/kg/injection, schedule: Q01DX001 (ip), vehicle: Klucel (hydroxypropylcellulose) (HPC)) was 6 of 6.

Consider `N=C(N)c1ccc(C(=N)N)cc1`, for which the survivor count was 1 of 6 (dose: 200.0 mg/kg/injection, schedule: Q01DX009 (ip), vehicle: water) and 1 of 6 (dose: 400.0 mg/kg/injection, schedule: Q04DX003 (ip), vehicle: water).

Regarding `C=C1C(=O)OC2C=C(C)CC3C=C(CCC=C(C)CCC12)C(=O)O3` (configuration not stated), the survivor count (dose: 20.0 mg/kg/injection, schedule: Q01DX009 (ip), vehicle: saline) was 4 of 4.

As for `O=C1OC(c2ccccc2)=C/C1=C/c1ccc([N+](=O)[O-])cc1`, the survivor count by setting is: under setting [3], 6 of 6; under setting [4], 6 of 6; under setting [5], 6 of 6; (dose: 500.0 mg/kg/injection, schedule: Q04DX003 (ip), vehicle: saline with Tween-80) 6 of 6. Also, the T/C under setting [5] was 126 % of control.

For the molecule `CCCCC(OC(=O)c1ccccc1)c1cc(OC(=O)c2ccccc2)c2c(c1OC(=O)c1ccccc1)CC(C)=C(C)C2` (configuration not stated), the survivor count (dose: 50.0 mg/kg/injection, schedule: Q04DX003 (ip), vehicle: saline with Tween-80) was 3 of 6; the survivor count under setting [3] is 2 of 6; the survivor count under setting [4] is reported as 0 of 6; the survivor count under setting [5] is 0 of 6.

Turning to `Nc1nc(N)c2c(Cl)c(CNc3ccc(Cl)c(Cl)c3)ccc2n1`, the survivor count reads like this: under setting [1], 6 of 6; under setting [2], 6 of 6; under setting [6], 6 of 6. Further, the T/C is, setting by setting: (dose: 25.0 mg/kg/injection, schedule: Q04DX003 (ip), vehicle: water) 130 % of control; (dose: 50.0 mg/kg/injection, schedule: Q04DX003 (ip), vehicle: water) 133 % of control.

For `CCCCCC[C@@H](O)[C@@H]1C2=C(C[C@H]([C@H](O)[C@@H]3CC=CC(=O)O3)CC3=C(C(=O)OC3=O)[C@@H]1O)C(=O)OC2=O`, the survivor count (dose: 1.0 mg/kg/injection, schedule: Q01DX009 (ip), vehicle: saline) is 0 of 6; the survivor count (dose: 2.2 mg/kg/injection, schedule: Q01DX009 (ip), vehicle: saline) is recorded as 0 of 6; the survivor count (dose: 3.3 mg/kg/injection, schedule: Q01DX009 (ip), vehicle: saline) is recorded as 0 of 6.

For the molecule `CC(=O)N(C)c1ccc(Nc2cc(C)[nH]c3ccc4ncnc4c23)cc1`, the T/C (dose: 25.0 mg/kg/injection, schedule: Q04DX002 (ip), vehicle: saline) is 137 % of control. Also, the survivor count by setting is: (dose: 200.0 mg/kg/injection, schedule: Q04DX002 (ip), vehicle: saline with Tween-80) 5 of 6; (dose: 200.0 mg/kg/injection, schedule: Q04DX002 (ip), vehicle: saline) 6 of 6; (dose: 400.0 mg/kg/injection, schedule: Q04DX002 (ip), vehicle: saline with Tween-80) 0 of 6.

As to `CNCCSS(=O)(=O)CCNC`, the survivor count (dose: 50.0 mg/kg/injection, schedule: Q01DX005 (ip), vehicle: saline) is 5 of 5 and the survivor count (dose: 200.0 mg/kg/injection, schedule: Q01DX005 (ip), vehicle: saline) is listed as 5 of 5.

For the molecule `COc1cc2c(cc1OC)C1CCN3C(=O)CCC3N1CC2` (configuration not stated), the survivor count under setting [6] is recorded as 6 of 6.

For `Nc1nc(N)c2c(ccc3nccc32)[nH]1`, the survivor count by setting is: (dose: 50.0 mg/kg/injection, schedule: Q01DX005 (ip), vehicle: saline with Tween-80) 1 of 5; (dose: 100.0 mg/kg/injection, schedule: Q01DX005 (ip), vehicle: saline with Tween-80) 0 of 5; (dose: 200.0 mg/kg/injection, schedule: Q01DX005 (ip), vehicle: saline with Tween-80) 0 of 5.

As for `C=CCN(C)/N=N/c1[nH]ncc1C(N)=O`, the T/C under setting [6] is 125 % of control.

As to `CC1CC(C)CC(C)C(O)/C(C#N)=C/C=C/CC(C2CCCC2C(=O)O)OC(=O)CC(O)C(C)C1` (configuration not stated), the T/C (dose: 2.0 mg/kg/injection, schedule: Q01DX009 (ip), vehicle: Klucel (hydroxypropylcellulose) (HPC)) is 139 % of control. Further, the survivor count is listed as 4 of 6 (dose: 4.0 mg/kg/injection, schedule: Q01DX009 (ip), vehicle: Klucel (hydroxypropylcellulose) (HPC)); 0 of 6 (dose: 8.0 mg/kg/injection, schedule: Q01DX009 (ip), vehicle: Klucel (hydroxypropylcellulose) (HPC)); 1 of 6 (dose: 16.0 mg/kg/injection, schedule: Q01DX009 (ip), vehicle: Klucel (hydroxypropylcellulose) (HPC)); 0 of 6 (dose: 45.0 mg/kg/injection, schedule: Q01DX009 (ip), vehicle: Klucel (hydroxypropylcellulose) (HPC)); 0 of 6 (dose: 90.0 mg/kg/injection, schedule: Q01DX009 (ip), vehicle: Klucel (hydroxypropylcellulose) (HPC)); 0 of 6 (dose: 180.0 mg/kg/injection, schedule: Q01DX009 (ip), vehicle: Klucel (hydroxypropylcellulose) (HPC)).
